Measured values: article PMC9220252
No constants are given. Whether binding was seen depends on the method and setting. Binding seen in cells or lysates may run through a third protein. A yes stands for co-enrichment or nearness to the bait. Other partners may have been found. Tags and fused reporters may be left off the sequences shown.

Sequences of proteins named here, by UniProt entry; tags and fusion partners are left off. A change or cut given only in a name is not applied to a line headed by its entry. A line that says so, or that is headed by a name, gives the form on record, which may keep a tag or linker.
Pyruvate kinase M2 (PKM2), PC12 cells (P11980-2, form named): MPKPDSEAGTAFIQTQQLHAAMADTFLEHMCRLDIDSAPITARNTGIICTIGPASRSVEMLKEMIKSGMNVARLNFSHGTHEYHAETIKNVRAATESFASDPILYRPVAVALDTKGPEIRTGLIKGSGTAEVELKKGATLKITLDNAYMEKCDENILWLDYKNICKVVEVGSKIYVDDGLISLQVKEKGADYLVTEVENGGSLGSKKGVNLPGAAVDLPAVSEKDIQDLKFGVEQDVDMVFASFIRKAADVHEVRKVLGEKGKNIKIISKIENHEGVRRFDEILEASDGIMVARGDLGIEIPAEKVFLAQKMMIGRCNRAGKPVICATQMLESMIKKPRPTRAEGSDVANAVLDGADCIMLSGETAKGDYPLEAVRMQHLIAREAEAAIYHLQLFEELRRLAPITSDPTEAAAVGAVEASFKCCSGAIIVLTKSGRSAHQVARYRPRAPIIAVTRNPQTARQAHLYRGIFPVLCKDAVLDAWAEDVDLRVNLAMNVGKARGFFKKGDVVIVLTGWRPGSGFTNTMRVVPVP

Target: T1, GST-PDHA1 S293D (UniProt P08559)
T1 sequence: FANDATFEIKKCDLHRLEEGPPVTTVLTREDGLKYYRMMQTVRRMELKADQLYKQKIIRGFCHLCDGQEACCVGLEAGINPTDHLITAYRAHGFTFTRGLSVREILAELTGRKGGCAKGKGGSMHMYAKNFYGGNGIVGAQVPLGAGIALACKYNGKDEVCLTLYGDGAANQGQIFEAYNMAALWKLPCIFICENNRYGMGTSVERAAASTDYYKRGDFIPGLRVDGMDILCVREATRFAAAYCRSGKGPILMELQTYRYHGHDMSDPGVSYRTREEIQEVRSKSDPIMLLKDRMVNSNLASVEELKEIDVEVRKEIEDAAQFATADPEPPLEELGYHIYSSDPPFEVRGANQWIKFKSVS
Experiment: affinity purification with mass spectrometry; purified GST-PDHA1 WT, S293D and S293A beads mixed with lysate of PC12 cells (NGF 100 ng/mL) overnight at 4 °C; SDS-PAGE; MALDI-TOF peptide mass fingerprinting; only the target purified

binding: binds
Substance: Pyruvate kinase M2 (PKM2), PC12 cells (from UniProt P11980-2 1-531)
